# Measured values published in paper PMC12670160, “A drug-repurposing screen of FDA- and EMA-approved drugs identifies two NF-κB inhibitors active against eumycetoma” (Journal of Antimicrobial Chemotherapy, 2025).
# Counter-ions that a name gives are not always drawn. The campaign covered roughly 5,300 compounds. About 130 (2.5%) showed an effect of 50% or more. This is one part of the list.
# Test system: M. mycetomatis strain mm55
# Conditions: primary screen, metabolic activity vs growth control; 96 h, 2 µM; inhibitor
row,SMILES,% viability
1,"c1coc(CNc2ncnc3[nH]cnc23)c1 [ONC0004770, kinetin 6furfuryladenine]",92%
2,"CS(=O)(=O)c1ccc(-c2nnc(/C=C/c3nnc(-c4ccc(C#N)cc4)o3)n2-c2ccccc2Cl)nc1 [ONC0002082, g007lk]",77.8%
3,"CCOc1ccc2nc(S(N)(=O)=O)sc2c1 [ONC0004143, ethoxzolamide]",89.88%
4,"N[C@H](C(=O)O)c1ccc(O)cc1 [ONC0003544, oxfenicine]",86.91%
5,"C[C@@H]1C[C@H]2[C@@H]3CCC4=CC(=O)C=C[C@]4(C)[C@@]3(Cl)[C@@H](O)C[C@]2(C)[C@@]1(OC(=O)c1ccco1)C(=O)CCl [ONC0004208, mometasone furoate]",101.4%
6,"CN1CCCN(C(c2ccccc2)c2ccc(Cl)cc2)CC1 (centres unmarked) [ONC0001961, homochlorcyclizine2hcl]",90.66%
7,"CCOC(=O)[C@H](CCc1ccccc1)N[C@@H](C)C(=O)N1C(=O)N(C)C[C@H]1C(=O)O [ONC0004912, imidapril hcl]",151.6%
8,"CCOC(=O)c1cnc2c(cnn2CC)c1NN=C(C)C [ONC0001658, etazolate]",80.47%
9,"COCC1(CO)C(=O)C2CCN1CC2 (centres unmarked) [ONC0000386, apr246]",84.84%
10,"O=C(O)c1cc(/N=N/c2ccc(S(=O)(=O)Nc3ccccn3)cc2)ccc1O [ONC0000599, sulfasalazine]",109.1%
11,"O=C(O)c1cc2cc(Cc3cccnc3)ccc2o1 [ONC0005322, furegrelate]",108.8%
12,"C#C[C@]1(O)CC[C@H]2[C@@H]3CCC4=CC(=O)CC[C@@H]4[C@H]3C(=C)C[C@@]21CC [ONC0003491, etonogestrel]",53.49%
13,"c1ccc(-c2oc3ncnc(NC[C@@H]4CCCO4)c3c2-c2ccccc2)cc1 [ONC0000129, aim100]",120.6%
14,"NC(=O)c1ccc(I)c([N+](=O)[O-])c1 [ONC0004703, iniparib bsi201]",114%
15,"CC(C)N(CCCCOCC(=O)NS(C)(=O)=O)c1cnc(-c2ccccc2)c(-c2ccccc2)n1 [ONC0001764, selexipag]",94.67%
16,"CCOC(=O)C1CSC(Cc2ccc(OCc3ccc([N+](=O)[O-])cc3)cc2)N1 (centres unmarked) [ONC0004441, sn6]",158%
17,"CC(C)C[C@H](NC(=O)CN(C)C(=O)[C@H](Cc1ccccc1)NC(=O)[C@H](Cc1ccccc1)NC(=O)[C@H](CCC(N)=O)NC(=O)[C@H](CCC(N)=O)NC(=O)[C@@H]1CCCN1C(=O)[C@H](CCCCN)NC(=O)[C@@H]1CCCN1C(=O)[C@@H](N)CCCNC(=N)N)C(=O)N[C@@H](CCS(C)(=O)=O)C(N)=O [ONC0003648, sar9meto211substance p]",64.96%

# Looked up above.
# Value of O=C(O)c1cc(/N=N/c2ccc(S(=O)(=O)Nc3ccccn3)cc2)ccc1O [ONC0000599, sulfasalazine] under % viability: 109.1%
# Value of c1ccc(-c2oc3ncnc(NC[C@@H]4CCCO4)c3c2-c2ccccc2)cc1 [ONC0000129, aim100] under % viability: 120.6%
